From publication PMC3827166
Results are given in words; binding and its absence hold for the method and conditions named. Binding seen in cells or lysates may run through a third protein. Some binding calls cover weakened binding; strength is not graded here.

By UniProt entry, the sequences of proteins in these tests, tags left out.
UniProt Q9JLT0: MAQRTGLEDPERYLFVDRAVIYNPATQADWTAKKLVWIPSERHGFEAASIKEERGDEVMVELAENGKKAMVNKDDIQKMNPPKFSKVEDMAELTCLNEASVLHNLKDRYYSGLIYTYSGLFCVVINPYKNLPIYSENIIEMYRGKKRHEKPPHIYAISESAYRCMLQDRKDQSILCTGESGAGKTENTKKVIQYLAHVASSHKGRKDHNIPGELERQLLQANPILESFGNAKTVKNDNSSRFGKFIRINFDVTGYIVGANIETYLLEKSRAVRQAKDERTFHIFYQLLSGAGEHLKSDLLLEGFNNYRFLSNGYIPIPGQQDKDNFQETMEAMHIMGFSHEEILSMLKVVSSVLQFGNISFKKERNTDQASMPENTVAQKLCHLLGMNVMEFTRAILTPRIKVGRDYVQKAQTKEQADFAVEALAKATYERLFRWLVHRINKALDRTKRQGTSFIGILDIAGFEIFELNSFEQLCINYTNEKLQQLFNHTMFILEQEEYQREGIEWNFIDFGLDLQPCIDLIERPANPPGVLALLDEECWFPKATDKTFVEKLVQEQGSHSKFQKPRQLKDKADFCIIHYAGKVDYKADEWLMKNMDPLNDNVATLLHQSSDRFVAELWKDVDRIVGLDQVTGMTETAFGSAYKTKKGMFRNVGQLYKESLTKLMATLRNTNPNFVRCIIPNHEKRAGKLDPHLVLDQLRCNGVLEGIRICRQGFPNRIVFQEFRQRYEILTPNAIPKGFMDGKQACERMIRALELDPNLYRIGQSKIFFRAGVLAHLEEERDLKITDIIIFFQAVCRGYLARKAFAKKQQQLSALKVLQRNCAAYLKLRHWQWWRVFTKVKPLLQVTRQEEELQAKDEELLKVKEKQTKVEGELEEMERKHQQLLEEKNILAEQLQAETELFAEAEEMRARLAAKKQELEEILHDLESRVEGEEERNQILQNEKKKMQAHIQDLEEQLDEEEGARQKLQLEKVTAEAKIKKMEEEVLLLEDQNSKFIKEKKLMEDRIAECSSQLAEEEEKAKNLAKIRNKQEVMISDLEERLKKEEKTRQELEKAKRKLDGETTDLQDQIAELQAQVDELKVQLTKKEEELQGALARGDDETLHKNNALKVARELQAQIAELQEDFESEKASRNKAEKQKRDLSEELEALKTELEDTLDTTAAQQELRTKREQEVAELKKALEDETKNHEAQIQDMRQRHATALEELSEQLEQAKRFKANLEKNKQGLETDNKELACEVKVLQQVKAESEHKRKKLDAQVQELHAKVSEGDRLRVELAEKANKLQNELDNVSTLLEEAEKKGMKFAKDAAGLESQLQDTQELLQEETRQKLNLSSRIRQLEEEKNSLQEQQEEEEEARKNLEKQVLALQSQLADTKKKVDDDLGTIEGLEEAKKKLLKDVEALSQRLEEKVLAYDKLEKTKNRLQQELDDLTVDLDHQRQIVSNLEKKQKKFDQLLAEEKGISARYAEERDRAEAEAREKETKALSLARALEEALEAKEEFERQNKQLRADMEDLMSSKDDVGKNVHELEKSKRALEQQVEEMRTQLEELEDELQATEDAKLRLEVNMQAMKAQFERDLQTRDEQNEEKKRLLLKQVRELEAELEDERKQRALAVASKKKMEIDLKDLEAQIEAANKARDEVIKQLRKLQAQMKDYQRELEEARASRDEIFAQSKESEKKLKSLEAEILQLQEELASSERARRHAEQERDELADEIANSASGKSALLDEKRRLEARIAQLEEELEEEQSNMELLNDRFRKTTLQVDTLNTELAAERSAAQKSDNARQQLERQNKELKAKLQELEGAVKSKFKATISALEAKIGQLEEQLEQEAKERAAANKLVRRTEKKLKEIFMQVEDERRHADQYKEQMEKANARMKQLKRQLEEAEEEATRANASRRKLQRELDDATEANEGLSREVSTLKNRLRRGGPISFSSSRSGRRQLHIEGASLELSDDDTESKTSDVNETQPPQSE

T1: four-and-a-half LIM protein-1 (FHL1) (rat (endogenous in L6GNR4 cells and E17 rat embryo lower limbs)) (UniProt Q9WUH4)
T1 sequence: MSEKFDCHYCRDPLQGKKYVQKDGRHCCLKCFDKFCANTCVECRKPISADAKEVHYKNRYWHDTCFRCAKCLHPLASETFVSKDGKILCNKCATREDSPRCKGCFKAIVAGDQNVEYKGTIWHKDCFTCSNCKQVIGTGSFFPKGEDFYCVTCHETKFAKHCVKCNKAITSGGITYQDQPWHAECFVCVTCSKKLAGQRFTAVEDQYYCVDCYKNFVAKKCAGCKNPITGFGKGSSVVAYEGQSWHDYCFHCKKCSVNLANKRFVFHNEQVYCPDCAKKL


Columns and labels:
[1] = molecular target: T1, four-and-a-half LIM protein-1 (FHL1) (rat (endogenous in L6GNR4 cells and E17 rat embryo lower limbs)); assay: co-IP; wild-type E17 rat embryo lower limb lysate; immunoprecipitation with anti-FHL1 antibody, Western blot
[2] = molecular target: T1, four-and-a-half LIM protein-1 (FHL1) (rat (endogenous in L6GNR4 cells and E17 rat embryo lower limbs)); assay: co-IP; L6GNR4 cell lysate; immunoprecipitation with anti-Fhl1, anti-Actg1 or anti-Myh10 antibody, Western blot
[3] = molecular target: non-muscle myosin IIB (Myh10) (rat (endogenous in L6GNR4 cells and E17 rat embryo lower limbs)) (UniProt Q9JLT0); assay: as above

Molecule | binding [1] | binding [2] | binding [3]
non-muscle myosin IIB (Myh10) (from UniProt Q9JLT0 1-1976) | binds | binds | 
four-and-a-half LIM protein-1 (FHL1) (protein, UniProt Q9WUH4 1-280) MSEKFDCHYCRDPLQGKKYVQKDGRHCCLKCFDKFCANTCVECRKPISADAKEVHYKNRYWHDTCFRCAKCLHPLASETFVSKDGKILCNKCATREDSPRCKGCFKAIVAGDQNVEYKGTIWHKDCFTCSNCKQVIGTGSFFPKGEDFYCVTCHETKFAKHCVKCNKAITSGGITYQDQPWHAECFVCVTCSKKLAGQRFTAVEDQYYCVDCYKNFVAKKCAGCKNPITGFGKGSSVVAYEGQSWHDYCFHCKKCSVNLANKRFVFHNEQVYCPDCAKKL |  |  | binds
